No constants are given. Whether binding was seen depends on the method and setting. For part of these data: Binding seen in cells or lysates may run through a third protein. Some binding calls cover weakened binding; strength is not graded here. For part of these data: Where a sequence is shown, tags or fusion partners need not be part of it.
Columns and labels:
[1] = biological target: T1, CPSF73 overexpressed in HEK cells (human) (UniProt Q9UKF6); experiment: pull-down
T1 sequence: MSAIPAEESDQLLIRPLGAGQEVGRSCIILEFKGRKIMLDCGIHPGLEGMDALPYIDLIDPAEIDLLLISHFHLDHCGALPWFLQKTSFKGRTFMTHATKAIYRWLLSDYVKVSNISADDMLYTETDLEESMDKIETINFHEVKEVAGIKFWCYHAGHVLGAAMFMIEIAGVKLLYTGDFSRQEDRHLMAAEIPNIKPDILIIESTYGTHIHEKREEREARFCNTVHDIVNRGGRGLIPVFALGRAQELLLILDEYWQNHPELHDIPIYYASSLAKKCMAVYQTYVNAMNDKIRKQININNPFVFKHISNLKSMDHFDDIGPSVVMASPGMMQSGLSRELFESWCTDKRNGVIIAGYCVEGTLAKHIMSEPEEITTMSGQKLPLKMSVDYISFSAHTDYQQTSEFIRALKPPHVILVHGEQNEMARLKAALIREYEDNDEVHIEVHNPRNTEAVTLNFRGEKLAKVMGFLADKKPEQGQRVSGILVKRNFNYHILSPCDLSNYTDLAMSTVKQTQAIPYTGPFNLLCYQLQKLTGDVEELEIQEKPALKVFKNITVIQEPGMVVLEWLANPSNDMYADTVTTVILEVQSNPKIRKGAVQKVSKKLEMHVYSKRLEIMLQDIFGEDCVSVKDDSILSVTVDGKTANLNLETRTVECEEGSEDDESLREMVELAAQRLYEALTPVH

[2] = biological target: T2, RBBP6_(1-335), FLAG-tagged, purified (human) (UniProt Q7Z6E9); experiment: cross-linking
T2 sequence: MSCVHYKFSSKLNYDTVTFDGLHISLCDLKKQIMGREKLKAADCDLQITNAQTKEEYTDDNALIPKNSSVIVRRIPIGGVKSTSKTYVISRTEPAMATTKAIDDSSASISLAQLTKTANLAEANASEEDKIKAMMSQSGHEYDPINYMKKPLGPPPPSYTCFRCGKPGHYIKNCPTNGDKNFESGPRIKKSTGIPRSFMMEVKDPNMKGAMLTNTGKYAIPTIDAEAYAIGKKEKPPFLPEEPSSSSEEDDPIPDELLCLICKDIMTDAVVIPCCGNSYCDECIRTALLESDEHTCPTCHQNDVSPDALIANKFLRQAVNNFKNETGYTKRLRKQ

[3] = biological target: T2, RBBP6_(1-335), FLAG-tagged, purified (human); experiment: cryo-EM structure

B1: RBBP6_(1-335) overexpressed in HEK cells (domain or fragment, UniProt Q7Z6E9 1-335)
chain: MSCVHYKFSSKLNYDTVTFDGLHISLCDLKKQIMGREKLKAADCDLQITNAQTKEEYTDDNALIPKNSSVIVRRIPIGGVKSTSKTYVISRTEPAMATTKAIDDSSASISLAQLTKTANLAEANASEEDKIKAMMSQSGHEYDPINYMKKPLGPPPPSYTCFRCGKPGHYIKNCPTNGDKNFESGPRIKKSTGIPRSFMMEVKDPNMKGAMLTNTGKYAIPTIDAEAYAIGKKEKPPFLPEEPSSSSEEDDPIPDELLCLICKDIMTDAVVIPCCGNSYCDECIRTALLESDEHTCPTCHQNDVSPDALIANKFLRQAVNNFKNETGYTKRLRKQ
- binding [1]: binds

B2: CPSF73, as subunit of the purified recombinant CPSF complex (enzyme, UniProt Q9UKF6 1-684)
chain: MSAIPAEESDQLLIRPLGAGQEVGRSCIILEFKGRKIMLDCGIHPGLEGMDALPYIDLIDPAEIDLLLISHFHLDHCGALPWFLQKTSFKGRTFMTHATKAIYRWLLSDYVKVSNISADDMLYTETDLEESMDKIETINFHEVKEVAGIKFWCYHAGHVLGAAMFMIEIAGVKLLYTGDFSRQEDRHLMAAEIPNIKPDILIIESTYGTHIHEKREEREARFCNTVHDIVNRGGRGLIPVFALGRAQELLLILDEYWQNHPELHDIPIYYASSLAKKCMAVYQTYVNAMNDKIRKQININNPFVFKHISNLKSMDHFDDIGPSVVMASPGMMQSGLSRELFESWCTDKRNGVIIAGYCVEGTLAKHIMSEPEEITTMSGQKLPLKMSVDYISFSAHTDYQQTSEFIRALKPPHVILVHGEQNEMARLKAALIREYEDNDEVHIEVHNPRNTEAVTLNFRGEKLAKVMGFLADKKPEQGQRVSGILVKRNFNYHILSPCDLSNYTDLAMSTVKQTQAIPYTGPFNLLCYQLQKLTGDVEELEIQEKPALKVFKNITVIQEPGMVVLEWLANPSNDMYADTVTTVILEVQSNPKIRKGAVQKVSKKLEMHVYSKRLEIMLQDIFGEDCVSVKDDSILSVTVDGKTANLNLETRTVECEEGSEDDESLREMVELAAQRLYEALTPVH
- binding [2]: binds
- binding [3]: binds

Reference: publication doi:10.1101/2021.11.02.466878
